The values below are quoted from earlier work in paper PMC3873810, “Structure–Activity Relationship of Adenosine 5′-diphosphoribose at the Transient Receptor Potential Melastatin 2 (TRPM2) Channel: Rational Design of Antagonists” (Journal of Medicinal Chemistry, 2013).

As usually defined, the pIC50 is the IC50 on a negative log10 scale, so that one unit is a factor of ten.

The data set concerns TRPM2 channel. To be noted: read-out: TRPM2 inhibition IC50; cited from earlier work.

pIC50: −log10 of the molar value.

Turning to `Clc1ccccc1C(c1ccccc1)(c1ccccc1)n1ccnc1` [clotrimazole], the pIC50 was above 5.52.

On to `Clc1ccc(COC(Cn2ccnc2)c2ccc(Cl)cc2Cl)cc1` (centres unmarked) [econazole], for which the pIC50 is above 5.52.
